# Measured values as given in the supplement of paper PMC8728848.
# The list shows a part of the results.
# Tests used:
# Assay in all cases: glycan array binding signal (z-score within array); higher = stronger binding
# Details in all cases: glycan notation: IUPAC condensed, linker removed
# Glc(b1-6)Glc = molecular target: Glc(b1-6)Glc
# How it was run: (§1)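 The binding signal is a Z-score computed within each array and averaged over linkers. Arrays of the same protein sequence at different concentrations or buffers were also averaged together. Data originate from 3228 arrays in the Consortium for Functional Glycomics database, kept only where the protein sequence was available.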
# GlcA(b1-3)Gal = molecular target: GlcA(b1-3)Gal
# How it was run: as §1
# GlcA(b1-3)GlcNAc = molecular target: GlcA(b1-3)GlcNAc
# How it was run: as §1
# GlcA(b1-6)Gal = molecular target: GlcA(b1-6)Gal
# How it was run: as §1
# [1] = molecular target: GlcA3S(b1-3)Gal(b1-4)GlcNAc(b1-2)Man
# How it was run: as §1
# [2] = molecular target: GlcA3S(b1-3)Gal(b1-4)GlcNAc(b1-3)Gal(b1-4)Glc
# How it was run: as §1
# [3] = molecular target: GlcNAc(a1-3)Gal(b1-4)GlcNAc
# How it was run: as §1
# [4] = molecular target: GlcNAc(a1-4)Gal(b1-3)GlcNAc
# How it was run: as §1
# [5] = molecular target: GlcNAc(a1-4)Gal(b1-4)GalNAc
# How it was run: as §1
# [6] = molecular target: GlcNAc(a1-4)Gal(b1-4)GlcNAc
# How it was run: as §1
# [7] = molecular target: GlcNAc(a1-4)Gal(b1-4)GlcNAc(b1-3)Gal(b1-4)Glc
# How it was run: as §1
# [8] = molecular target: GlcNAc(a1-4)Gal(b1-4)GlcNAc(b1-3)Gal(b1-4)GlcNAc
# How it was run: as §1
# [9] = molecular target: GlcNAc(a1-4)Gal(b1-4)GlcNAc(b1-3)Gal(b1-4)GlcNAc(b1-3)Gal(b1-4)GlcNAc
# How it was run: as §1
# [10] = molecular target: GlcNAc(a1-4)Gal(b1-4)GlcNAc(b1-3)Gal(b1-4)[Fuc(a1-3)]GlcNAc(b1-3)Gal(b1-4)[Fuc(a1-3)]GlcNAc
# How it was run: as §1
# [11] = molecular target: GlcNAc(a1-6)Gal(b1-4)GlcNAc
# How it was run: as §1
# [12] = molecular target: GlcNAc(b1-2)Gal(b1-3)GalNAc
# How it was run: as §1
# [13] = molecular target: GlcNAc(b1-2)Man(a1-3)[GlcNAc(b1-2)Man(a1-6)]Man(b1-4)GlcNAc(b1-4)GlcNAc
# How it was run: as §1
# [14] = molecular target: GlcNAc(b1-2)Man(a1-3)[GlcNAc(b1-2)Man(a1-6)]Man(b1-4)GlcNAc(b1-4)[Fuc(a1-6)]GlcNAc
# How it was run: as §1
# [15] = molecular target: GlcNAc(b1-2)Man(a1-3)[GlcNAc(b1-4)][GlcNAc(b1-2)Man(a1-6)]Man(b1-4)GlcNAc(b1-4)GlcNAc
# How it was run: as §1
# [16] = molecular target: GlcNAc(b1-2)Man(a1-3)[GlcNAc(b1-4)][GlcNAc(b1-2)Man(a1-6)]Man(b1-4)GlcNAc(b1-4)[Fuc(a1-6)]GlcNAc
# How it was run: as §1
# [17] = molecular target: GlcNAc(b1-2)[GlcNAc(b1-4)]Man(a1-3)[GlcNAc(b1-2)Man(a1-6)]Man(b1-4)GlcNAc(b1-4)GlcNAc
# How it was run: as §1
# [18] = molecular target: GlcNAc(b1-2)[GlcNAc(b1-4)]Man(a1-3)[GlcNAc(b1-4)][GlcNAc(b1-2)Man(a1-6)]Man(b1-4)GlcNAc(b1-4)GlcNAc
# How it was run: as §1
# [19] = molecular target: GlcNAc(b1-2)[GlcNAc(b1-4)]Man(a1-3)[GlcNAc(b1-4)][GlcNAc(b1-2)[GlcNAc(b1-6)]Man(a1-6)]Man(b1-4)GlcNAc(b1-4)GlcNAc
# How it was run: as §1
# [20] = molecular target: GlcNAc(b1-2)[GlcNAc(b1-4)]Man(a1-3)[GlcNAc(b1-4)][GlcNAc(b1-2)[GlcNAc(b1-6)]Man(a1-6)]Man(b1-4)GlcNAc(b1-4)[Fuc(a1-6)]GlcNAc
# How it was run: as §1
# [21] = molecular target: GlcNAc(b1-2)[GlcNAc(b1-6)]Man(a1-6)[GlcNAc(b1-2)Man(a1-3)]Man(b1-4)GlcNAc(b1-4)GlcNAc
# How it was run: as §1
# [22] = molecular target: GlcNAc(b1-2)[GlcNAc(b1-6)]Man(a1-6)[GlcNAc(b1-2)Man(a1-3)]Man(b1-4)GlcNAc(b1-4)[Fuc(a1-6)]GlcNAc
# How it was run: as §1
# [23] = molecular target: GlcNAc(b1-2)[GlcNAc(b1-6)]Man(a1-6)[GlcNAc(b1-4)][GlcNAc(b1-2)Man(a1-3)]Man(b1-4)GlcNAc(b1-4)GlcNAc
# How it was run: as §1
# GlcNAc(b1-3)Fuc = molecular target: GlcNAc(b1-3)Fuc
# How it was run: as §1
# GlcNAc(b1-3)Gal = molecular target: GlcNAc(b1-3)Gal
# How it was run: as §1
# [24] = molecular target: GlcNAc(b1-3)Gal(b1-3)GalNAc
# How it was run: as §1
# GlcNAc(b1-3)Gal(b1-4)Glc = molecular target: GlcNAc(b1-3)Gal(b1-4)Glc
# How it was run: as §1
# [25] = molecular target: GlcNAc(b1-3)Gal(b1-4)GlcNAc
# How it was run: as §1
# [26] = molecular target: GlcNAc(b1-3)Gal(b1-4)GlcNAc(b1-2)Man(a1-3)[GlcNAc(b1-3)Gal(b1-4)GlcNAc(b1-2)Man(a1-6)]Man(b1-4)GlcNAc(b1-4)GlcNAc
# How it was run: as §1
# [27] = molecular target: GlcNAc(b1-3)Gal(b1-4)GlcNAc(b1-2)Man(a1-3)[GlcNAc(b1-3)Gal(b1-4)GlcNAc(b1-2)Man(a1-6)]Man(b1-4)GlcNAc(b1-4)[Fuc(a1-6)]GlcNAc
# How it was run: as §1
# [28] = molecular target: GlcNAc(b1-3)Gal(b1-4)GlcNAc(b1-2)[GlcNAc(b1-3)Gal(b1-4)GlcNAc(b1-6)]Man(a1-6)[GlcNAc(b1-3)Gal(b1-4)GlcNAc(b1-2)Man(a1-3)]Man(b1-4)GlcNAc(b1-4)GlcNAc
# How it was run: as §1
# [29] = molecular target: GlcNAc(b1-3)Gal(b1-4)GlcNAc(b1-3)Gal(b1-4)GlcNAc
# How it was run: as §1
# [30] = molecular target: GlcNAc(b1-3)Gal(b1-4)GlcNAc(b1-3)Gal(b1-4)GlcNAc(b1-2)Man(a1-3)[GlcNAc(b1-3)Gal(b1-4)GlcNAc(b1-3)Gal(b1-4)GlcNAc(b1-2)Man(a1-6)]Man(b1-4)GlcNAc(b1-4)GlcNAc
# How it was run: as §1
binder,measurement,setting,value
Gs78B-bfa-542-29-542 (Bacteroides fragilis) (protein) SEDINRNPLLPTKEDEKMDGVIYGAYLPNLEKSVIPIGTASESTEPVNRYQIGVNLAGDAWAGYMSPRDNKFNGSKNFTNYFMYENWVNYVYSFMVTDVYSPWMQIKRISQDEGTRNDEIYALAQIIKIAALHRTTDMFGPIPYSQVGKGSFKVAYDSQESVYRSFLKELEEAVQTLDDYSNKSKEVLPAFDIVYNGDVNKWMRFANSLMLRLAIRVRFADAGLAKEYAEKAVKHPAGLINSKELAAQMGKGAGLQMKNPLKVINEEYNDTRMGATIYSYLAGYNDARAAVYFVKNNGFKAVRCGIAKSGDAYNGFTRPNVHEDDPLYWMKASEVCFLKAEGALAGFDMGGSAGDFYNAGIRMSFSENGLDNSSAETYLKDSTRKPANYTDTSNGELSANAPSSITIRWENGATEEEKLERIITQKYLAIFPNGQEAWTEWRRTGYPRQIVVAENKTNSAVLIGNGYDLGGVRRLPYPRTEYEQNGENLHNAISQYLGGVDNAATKVWWDKKSK,glycan array binding signal (z-score),Glc(b1-6)Glc,-0.312
same,glycan array binding signal (z-score),GlcA(b1-3)Gal,-0.697
same,glycan array binding signal (z-score),GlcA(b1-3)GlcNAc,-0.526
same,glycan array binding signal (z-score),GlcA(b1-6)Gal,2.77
same,glycan array binding signal (z-score),[1],-0.724
same,glycan array binding signal (z-score),[2],-0.813
same,glycan array binding signal (z-score),[3],-0.839
same,glycan array binding signal (z-score),[4],-0.824
same,glycan array binding signal (z-score),[5],-0.269
same,glycan array binding signal (z-score),[6],-0.823
same,glycan array binding signal (z-score),[7],-0.816
same,glycan array binding signal (z-score),[8],-0.691
same,glycan array binding signal (z-score),[9],-0.848
same,glycan array binding signal (z-score),[10],0.629
same,glycan array binding signal (z-score),[11],-0.376
same,glycan array binding signal (z-score),[12],-0.833
same,glycan array binding signal (z-score),[13],-0.817
same,glycan array binding signal (z-score),[14],-0.299
same,glycan array binding signal (z-score),[15],-0.809
same,glycan array binding signal (z-score),[16],-0.857
same,glycan array binding signal (z-score),[17],-0.838
same,glycan array binding signal (z-score),[18],-0.838
same,glycan array binding signal (z-score),[19],-0.851
same,glycan array binding signal (z-score),[20],-0.855
same,glycan array binding signal (z-score),[21],-0.427
same,glycan array binding signal (z-score),[22],-0.837
same,glycan array binding signal (z-score),[23],-0.844
same,glycan array binding signal (z-score),GlcNAc(b1-3)Fuc,-0.822
same,glycan array binding signal (z-score),GlcNAc(b1-3)Gal,-0.85
same,glycan array binding signal (z-score),[24],-0.48
same,glycan array binding signal (z-score),GlcNAc(b1-3)Gal(b1-4)Glc,-0.79
same,glycan array binding signal (z-score),[25],-0.816
same,glycan array binding signal (z-score),[26],-0.439
same,glycan array binding signal (z-score),[27],0.908
same,glycan array binding signal (z-score),[28],-0.485
same,glycan array binding signal (z-score),[29],-0.853
same,glycan array binding signal (z-score),[30],0.604

# Some of the entries above, set out differently:
binder	measurement	setting	value
Gs78B-bfa-542-29-542 (Bacteroides fragilis) (protein) SEDINRNPLLPTKEDEKMDGVIYGAYLPNLEKSVIPIGTASESTEPVNRYQIGVNLAGDAWAGYMSPRDNKFNGSKNFTNYFMYENWVNYVYSFMVTDVYSPWMQIKRISQDEGTRNDEIYALAQIIKIAALHRTTDMFGPIPYSQVGKGSFKVAYDSQESVYRSFLKELEEAVQTLDDYSNKSKEVLPAFDIVYNGDVNKWMRFANSLMLRLAIRVRFADAGLAKEYAEKAVKHPAGLINSKELAAQMGKGAGLQMKNPLKVINEEYNDTRMGATIYSYLAGYNDARAAVYFVKNNGFKAVRCGIAKSGDAYNGFTRPNVHEDDPLYWMKASEVCFLKAEGALAGFDMGGSAGDFYNAGIRMSFSENGLDNSSAETYLKDSTRKPANYTDTSNGELSANAPSSITIRWENGATEEEKLERIITQKYLAIFPNGQEAWTEWRRTGYPRQIVVAENKTNSAVLIGNGYDLGGVRRLPYPRTEYEQNGENLHNAISQYLGGVDNAATKVWWDKKSK	glycan array binding signal (z-score)	[6]	-0.823
same	glycan array binding signal (z-score)	[11]	-0.376
